This test is described as follows: qHTS Assay for Lipid Storage Modulators in Drosophila S3 Cells.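 As to cell number change: cells counted by Cell Tracker Red CMTPX staining in the red channel.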 The note with it: BODIPY lipid droplet fluorescence, 18-24 h; for cell number change: measured here: cell count max response, cells fed with added oleic acid. The procedure, abridged: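 Drosophila S3 cells loaded with oleic acid (400 uM, as added) and compounds at several concentrations; lipid droplets imaged by 488-nm laser-scanning cytometry, 500–530 nm intensity and object ratio to cell channel. Percent activity normalized to 20 uM Triacsin C.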

The mark [1] stands for this setting: measured here: cell number channel AC50, cells fed with added oleic acid.
[2] abbreviates: measured here: lipid fluorescence (Fed channel) AC50, cells fed with added oleic acid.

Each structure is given as a SMILES string. The list shows a part of the results. Further columns of the screen follow, without active or inactive calls. Most of these compounds were active or inconclusive in the main read-out, so they are no random draw. Potencies come from curve fits of mixed quality, noted in brackets.

One may read the AC50 as the midpoint of the concentration-response curve, whichever way the signal moves. Read a low AC50 as activity at low concentration. Turning to `Cc1ccc(F)cc1NC(=O)CCc1c(C)[nH]c(=O)c(C#N)c1C`, the cell number change amounted to 2.63%. Also, under setting [1], the AC50 was 0.146 µM [rising, partial curve, poor fit].

In the case of `COc1cccc(COc2ccc3ccc(=O)oc3c2)c1`, the cell number change was 14.2%.

Turning to `CCOC(=O)c1c(S(=O)(=O)Nc2ccc(CN3CCC(C)CC3)cc2)c(C)n(C)c1C`, the cell number change came out at 0.236%.

On to `CN(NC(=O)C1CC(=O)N(c2ccccc2)C1)C1=NS(=O)(=O)c2ccccc21` (configuration not stated), for which the cell number change stood at 2.72%. Also, the AC50 under setting [1] is 0.461 µM [falling, single point]. Also, the AC50 under setting [2] is 0.461 µM [falling, partial curve, poor fit].

Regarding `O=C(Nc1ccc2ccccc2c1)/C(=C/c1cccc(Br)c1)NC(=O)c1ccco1`, the cell number change turned out to be 19.2%. The AC50 under setting [2] was 23.1 µM [rising, single point].

Take `O=C(O)CC1COc2ccccc2N1S(=O)(=O)c1ccc(Br)cc1` (configuration not stated): the cell number change is -15.7%. Besides, the concentration at half-maximal activity (AC50) under setting [2] was 29.1 µM [rising, single point].

For `COc1cc(/C=C2\SC(=O)N(c3ccccc3Cl)C2=O)cc([N+](=O)[O-])c1O`, the cell number change was -19%. Also, the AC50 under setting [2] was 29.1 µM [falling, single point].

As to `O=C(CN1C(=O)NC2(CCCC2)C1=O)N1CCN(S(=O)(=O)c2ccccc2Br)CC1`, the cell number change was -7.18%.

Consider `COc1ccc([N+](=O)[O-])cc1-n1cccc1`, for which the cell number change was found to be 14.4%. Also, under setting [2], the AC50 was 18.4 µM [rising, single point].

As to `CCCN(CCC)Cc1c(C(=O)N/N=C/CCc2ccccc2)nnn1-c1nonc1N`, the cell number change came to 34.2%. Also, the AC50 under setting [1] is 8.2 µM [rising, partial curve, poor fit]. In addition, under setting [2], the concentration at half-maximal activity (AC50) is 0.731 µM [falling, partial curve].

As to `O=C(N/C(=C/c1ccc(Cl)cc1)c1nc2ccccc2[nH]1)c1ccco1`, the cell number change was -31.4%. Also, under setting [1], the AC50 was 16.4 µM [falling, single point]. Also, under setting [2], the concentration at half-maximal activity (AC50) was 13 µM [falling, partial curve, poor fit].

Consider `O=C(Cc1c(Cl)cccc1Cl)OCc1ccccn1`, for which the cell number change came to 9.58%.

Consider `O=C(CC1C(=O)NCCN1Cc1cccc(C(F)(F)F)c1)NC1CCCCCC1` (configuration not stated), for which, under setting [2], the AC50 is 2.06 µM [falling, partial curve].

As to `Cc1cc(NC(=O)CSc2nccn2C)n(-c2ccccc2)n1`, the cell number change was 6.32%. Besides, under setting [2], the half-maximal activity concentration (AC50) was 0.116 µM [falling, full curve, poor fit].

Take `CC(=O)COC(=O)C1CCN(S(=O)(=O)c2cc([N+](=O)[O-])ccc2Cl)CC1`: the cell number change is -6.33%. Further, the AC50 under setting [2] is 0.00461 µM [falling, full curve].

Consider `CCCN1C2CCCC1CC(NC(=O)c1cc(OC)cc(OC)c1)C2` (configuration not stated), for which the cell number change is 11.4%.

Consider `Cc1ccc(C(=O)O/N=C2/CC3CCC2(C)[C@@]3(C)CBr)cc1` (some centres not stated), for which the cell number change is -21.8%. For the same compound, the AC50 under setting [2] was 3.66 µM [falling, full curve, poor fit].

Regarding `CC(C)CNC(=O)COC(=O)c1c2c(nc3ccccc13)CCC2`, the AC50 under setting [2] was 29.1 µM [falling, single point].

`CCN(CC)Cc1c(O)c(Cl)cc2c(C)c(C)c(=O)oc12`: the cell number change is -0.925%. The AC50 under setting [2] was 3.66 µM [falling, single point].

Regarding `Cc1ccc(N=Nc2[nH]c3ccccc3c2O)cc1`, the cell number change was -6.58%. In addition, the AC50 under setting [2] is 8.2 µM [falling, partial curve].

`COc1ccc(-c2[nH]ncc2/C=C(/C#N)C(=O)NC2CCCCC2)cc1`: the cell number change is -11.3%. For the same compound, the AC50 under setting [2] is 9.2 µM [rising, partial curve, poor fit].

Take `Nc1cc(=O)[nH]c(SCc2nc3ccccc3n2Cc2ccccc2)n1`: the cell number change is -12.5%.

As for `Cc1cc(C(=O)CSc2nc3ccccc3n2CCC#N)c(C)n1Cc1cccs1`, the cell number change was -20.8%. Besides, under setting [2], the AC50 was 0.461 µM [rising, partial curve].

Take `Cc1cc(C)nc(Nc2nc3ccccc3o2)n1`: the cell number change was -9.61%. Also, the AC50 under setting [1] was 0.164 µM [falling, full curve, poor fit]. Under setting [2], the AC50 was 0.13 µM [falling, full curve, poor fit].

Regarding `Cc1c(C(=O)N(C)c2ccccc2)oc2c1C(O)CC(C)(C)C2` (configuration not stated), under setting [2], the concentration at half-maximal activity (AC50) was 0.116 µM [rising, full curve, poor fit].

For the compound `CCOC(=O)C1CCN(CC(=O)c2c(C)[nH]c3cc(C)ccc23)CC1`, the cell number change was found to be 7.97%. Under setting [2], the AC50 was 2.59 µM [rising, partial curve].

As to `CCN(CC(=O)Nc1ccc2c(c1)OCO2)Cc1nc2ccccc2c(=O)[nH]1`, the cell number change is -4.47%. Besides, the AC50 under setting [2] is 0.13 µM [rising, full curve, poor fit].

Take `O=C(Nc1ccc2nc(-c3ccc(Br)o3)[nH]c2c1)c1ccco1`: the cell number change was 30.5%. Moreover, under setting [1], the AC50 was 29.1 µM [rising, single point]. Also, the AC50 under setting [2] is 23.1 µM [rising, single point].

With `CC(=O)N1CCc2c(sc(NC(=O)C3CC3)c2-c2nc3ccccc3s2)C1`, the AC50 reads like this: under setting [1], 0.259 µM [rising, full curve, poor fit]; under setting [2], 5.8 µM [rising, single point].

Regarding `CC(=O)Nc1ccc(N2C(=O)CC(N3CC(C)OC(C)C3)C2=O)cc1` (configuration not stated), the cell number change was -1.23%. Under setting [2], the half-maximal activity concentration (AC50) was 2.91 µM [rising, single point].

Turning to `COc1ccc(CCN2C(=O)C(Oc3ccccc3)C2c2ccc3c(c2)OCO3)cc1` (configuration not stated), the cell number change was 15.5%. Also, the AC50 under setting [2] is 1.84 µM [rising, partial curve, poor fit].

For the compound `O=C(COc1cc2oc(=O)c3c(c2cc1Cl)CCC3)N1C[C@H]2C[C@@H](C1)c1cccc(=O)n1C2`, the cell number change was -12.9%. In addition, under setting [2], the AC50 is 32.6 µM [falling, partial curve, poor fit].

Consider `O=C(O)c1ccc(S(=O)(=O)N2CCN(c3ccccn3)CC2)cc1`, for which the cell number change is 12.4%.

Consider `N#C/C(=C/c1cccn1-c1cccc(C(=O)O)c1)c1ccc(Cl)cc1`, for which the cell number change is -24.6%. Moreover, the AC50 under setting [2] is 16.4 µM [falling, single point].

Regarding `Cc1cc(OCCN2CCCC2)ccc1[N+](=O)[O-]`, the cell number change was 90.2%. Under setting [1], the AC50 was 29.1 µM [rising, single point]. For the same compound, the AC50 under setting [2] was 29.1 µM [rising, single point].

On to `C=C1C(=O)O[C@@H]2[C@H]1CC[C@H](C)[C@]1(O)CCC(=O)[C@@]21C`, for which the cell number change is -23.4%. Also, under setting [2], the AC50 was 10.3 µM [falling, partial curve].

Consider `O=C(NCCc1cn2ccccc2n1)c1cc(COc2ccc3ncccc3c2)on1`, for which the cell number change is -43.3%. For the same compound, the AC50 under setting [1] was 29.1 µM [falling, single point].

With `COc1ccc(NC(=O)COC(=O)C2CC(=O)N(c3ccc(OC(C)C)cc3)C2)cc1` (configuration not stated), the cell number change was found to be 50%. Under setting [2], the half-maximal activity concentration (AC50) was 0.1 µM [falling, full curve, poor fit].

The record behind these values is PubChem BioAssay AID2685 (National Center for Advancing Translational Sciences (NCATS), 2010).
